For two molecules, binding results are on record in article PMC10765799.

Results are given in words; binding and its absence hold for the method and conditions named. Binding can be weak; no strength is given. Sequences can lack the tags named with a protein. For part of these data: In cells and extracts the contact can be indirect.

Experiment [1] has as its target HA-SAP130 3KA (K794A/K878A/K932A) (human). As to the kind of experiment: co-IP; COS-1 cells co-transfected, lysed after 48 h in modified RIPA buffer (50 mM Tris-HCl pH 7.8, 150 mM NaCl, 5 mM EDTA, detergents); IP with anti-HA, Western blot with anti-FLAG or anti-Myc.
A further experiment concerns the target HA-SAP130 WT (human). The description is as above.
Experiment [2] addresses LexA-SAP130 C-terminal region (amino acids 760-1048) WT (human). The experiment can be described thus: two-hybrid; LexA-SAP130 C-terminal region (760-1048) baits against Gal4 AD preys in L40 yeast; growth without histidine, X-Gal plates, liquid beta-galactosidase assay.

B1: myc-tagged mSin3A (protein, UniProt Q60520 1-1274)
chain: MKRRLDDQESPVYAAQQRRIPGSTEAFSHQHRVLAPAPPVYEAVSETMQSATGIQYSVAPNYQVSAVPQSSGSHGPAIAAVHSSHHHPTAVQPHGGQVVQSHAHPAPPVAPVQGQQQFQRLKVEDALSYLDQVKLQFGSQPQVYNDFLDIMKEFKSQSIDTPGVISRVSQLFKGHPDLIMGFNTFLPPGYKIEVQTNDMVNVTTPGQVHQIPTHGIQPQPQPPPQHPSQPSSQSAPTPAQPAPQPTAAKVSKPSQLQAHTPASQQTPPLPPYASPRSPPVQPHTPVTISLGTAPSLQNNQPVEFNHAINYVNKIKNRFQGQPDIYKAFLEILHTYQKEQRNAKEAGGNYTPALTEQEVYAQVARLFKNQEDLLSEFGQFLPDANSSVLLSKTTAEKVDSVRNDHGGTVKKPQLNNKPQRPSQNGCQIRRHSGTGATPPVKKKPKLMSLKESSMADASKHGVGTESLFFDKVRKALRSAEAYENFLRCLVIFNQEVISRAELVQLVSPFLGKFPELFNWFKNFLGYKESVHLESFPKERATEGIAMEIDYASCKRLGSSYRALPKSYQQPKCTGRTPLCKEVLNDTWVSFPSWSEDSTFVSSKKTQYEEHIYRCEDERFELDVVLETNLATIRVLEAIQKKLSRLSAEEQAKFRLDNTLGGTSEVIHRKALQRIYADKAADIIDGLRKNPSIAVPIVLKRLKMKEEEWREAQRGFNKVWREQNEKYYLKSLDHQGINFKQNDTKVLRSKSLLNEIESIYDERQEQATEENAGVPVGPHLSLAYEDKQILEDAAALIIHHVKRQTGIQKEDKYKIKQIMHHFIPDLLFAQRGDLSDVEEEEEEEMDVDEATGAPKKHNGVGGSPPKSKLLFSNTAAQKLRGMDEVYNLFYVNNNWYIFMRLHQILCLRLLRICSQAERQIEEENREREWEREVLGIKRDKSDSPAIQLRLKEPMDVDVEDYYPAFLDMVRSLLDGNIDSSQYEDSLREMFTIHAYIAFTMDKLIQSIVRQLQHIVSDEVCVQVTDLYLAENNNGATGGQLNSQTSRSLLESAYQRKAEQLMSDENCFKLMFIQSQGQVQLTVELLDTEEENSDDPVEAERWSDYVERYMSSDTTSPELREHLAQKPVFLPRNLRRIRKCQRGREQQEKEGKEGNSKKTMENVESLDKLECRFKLNSYKMVYVIKSEDYMYRRTALLRAHQSHERVSKRLHQRFQAWVDKWTKEHVPREMAAETSKWLMGEGLEGLVPCTTTCDTETLHFVSINKYRVKYGTVFKAP
Turning to B1, the binding entry (in experiment [1]; in the experiment with HA-SAP130 WT (human)) was “binds” each time.

B2: Gal4 AD-mSin3A (full-length) (protein, UniProt Q60520 1-1274)
chain: MKRRLDDQESPVYAAQQRRIPGSTEAFSHQHRVLAPAPPVYEAVSETMQSATGIQYSVAPNYQVSAVPQSSGSHGPAIAAVHSSHHHPTAVQPHGGQVVQSHAHPAPPVAPVQGQQQFQRLKVEDALSYLDQVKLQFGSQPQVYNDFLDIMKEFKSQSIDTPGVISRVSQLFKGHPDLIMGFNTFLPPGYKIEVQTNDMVNVTTPGQVHQIPTHGIQPQPQPPPQHPSQPSSQSAPTPAQPAPQPTAAKVSKPSQLQAHTPASQQTPPLPPYASPRSPPVQPHTPVTISLGTAPSLQNNQPVEFNHAINYVNKIKNRFQGQPDIYKAFLEILHTYQKEQRNAKEAGGNYTPALTEQEVYAQVARLFKNQEDLLSEFGQFLPDANSSVLLSKTTAEKVDSVRNDHGGTVKKPQLNNKPQRPSQNGCQIRRHSGTGATPPVKKKPKLMSLKESSMADASKHGVGTESLFFDKVRKALRSAEAYENFLRCLVIFNQEVISRAELVQLVSPFLGKFPELFNWFKNFLGYKESVHLESFPKERATEGIAMEIDYASCKRLGSSYRALPKSYQQPKCTGRTPLCKEVLNDTWVSFPSWSEDSTFVSSKKTQYEEHIYRCEDERFELDVVLETNLATIRVLEAIQKKLSRLSAEEQAKFRLDNTLGGTSEVIHRKALQRIYADKAADIIDGLRKNPSIAVPIVLKRLKMKEEEWREAQRGFNKVWREQNEKYYLKSLDHQGINFKQNDTKVLRSKSLLNEIESIYDERQEQATEENAGVPVGPHLSLAYEDKQILEDAAALIIHHVKRQTGIQKEDKYKIKQIMHHFIPDLLFAQRGDLSDVEEEEEEEMDVDEATGAPKKHNGVGGSPPKSKLLFSNTAAQKLRGMDEVYNLFYVNNNWYIFMRLHQILCLRLLRICSQAERQIEEENREREWEREVLGIKRDKSDSPAIQLRLKEPMDVDVEDYYPAFLDMVRSLLDGNIDSSQYEDSLREMFTIHAYIAFTMDKLIQSIVRQLQHIVSDEVCVQVTDLYLAENNNGATGGQLNSQTSRSLLESAYQRKAEQLMSDENCFKLMFIQSQGQVQLTVELLDTEEENSDDPVEAERWSDYVERYMSSDTTSPELREHLAQKPVFLPRNLRRIRKCQRGREQQEKEGKEGNSKKTMENVESLDKLECRFKLNSYKMVYVIKSEDYMYRRTALLRAHQSHERVSKRLHQRFQAWVDKWTKEHVPREMAAETSKWLMGEGLEGLVPCTTTCDTETLHFVSINKYRVKYGTVFKAP
In the case of B2, the binding entry in experiment [2] is reported as “binds weakly”.
